These are yes or no findings as the source states them, for the method shown. Some binding calls cover weakened binding; strength is not graded here.

Experiment [1] addresses Catalytic subunit of calcineurin (CaNA), residues 2-347 with substitutions Y341S, L343A and M347D (UniProt Q08209). Briefly: FP competition assay against FITC-PVIVIT on CaNA.
Experiment [2] shares this target. Nature of the experiment: fluorescence polarization competition; unlabeled peptide titrated against 100 nM FITC-labeled PVIVIT bound to 4 uM CaNA. (In general: In fluorescence polarisation assays a small probe gives low polarisation when free and higher when bound to something large.)

B1: rbmTRESK (designed binder)
peptide: ADEAIPEIVISKPEEP
modifications: N-ter acetylation and C-ter amidation
On to B1, for which the binding entry in experiment [1] and in experiment [2] was “binds” throughout.

B2: rbmAKAP79_2 (designed binder)
peptide: ADGAGVGIVITVTEAE
modifications: N-ter acetylation and C-ter amidation
As for B2, the binding entry in experiment [1] is on record as “binds”.

B3: rbmRIPOR2_2 (designed binder)
peptide: HVSSSPRITITPTQHR
modifications: N-ter acetylation and C-ter amidation
For the molecule B3, in experiment [2], the binding entry was “binds”.

B4: rbmAKAP79 (designed binder)
peptide: AAGAGVGIVITVTEAE
modifications: N-ter acetylation and C-ter amidation
Regarding B4, the binding result in experiment [1] and in experiment [2] was “binds” each time.

Source of the values: US20250326797A1, “PROTEIN-PROTEIN INTERACTION MODULATORS AND METHODS FOR DESIGN THEREOF” (RAMOT AT TEL AVIV UNIVERSITY LTD., priority 2022, published 2025).
